# Measured values taken from the supplement of paper PMC4604168 (melanoma cell lines).
# Some of the results follow. Single values are uncertain, as repeats are few or missing.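 Imaging used 1,536-well plates; nuclei positive for cleaved PARP by antibody were divided by total DNA-stained nuclei to yield the apoptosis fraction. Doses for screening kept most cells viable, and cell lines differ markedly in resting and induced cleaved-PARP levels.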
# Test system: MeWo
# Experiment: cleaved PARP positive nuclei fraction relative to DMSO control; melanoma cells; higher = more apoptosis
# Details: library dose: low library concentration; 72 h
row,SMILES,cleaved PARP positive nuclei fraction
1,"O=C(O)c1ccc2c(c1)nc(Nc1cccc(Cl)c1)c1ccncc12 + O=C(O)c1ccc(-c2c[nH]c3ncc(-c4ccccc4)cc23)cc1C1CCCC1 [GSK650394] (first compound 0.4 µM, partner dose 0.16 µM)",70.2%
2,"Cc1cc(Nc2cc(N3CCN(C)CC3)nc(/C=C/c3ccccc3)n2)n[nH]1 + C=CCn1c(=O)c2cnc(Nc3ccc(N4CCN(C)CC4)cc3)nc2n1-c1cccc(C(C)(C)O)n1 [MK1775] (first compound 0.04 µM, partner dose 0.02 µM)",71.2%
3,"Nc1ccn([C@@H]2O[C@H](CO)[C@@H](O)C2(F)F)c(=O)n1 [gemcitabine] + O=C(Nc1cccc(Cl)c1)Nc1ncc(CCNc2ncnc3ccsc23)s1 [SNS314] (first compound 0.0004 µM, partner dose 0.0008 µM)",111%
4,"C[C@@H](Oc1cc(-c2cnn(C3CCNCC3)c2)cnc1N)c1c(Cl)ccc(F)c1Cl [Crizotinib] + CO[C@@H]1[C@H](N(C)C(=O)c2ccccc2)C[C@H]2O[C@]1(C)n1c3ccccc3c3c4c(c5c6ccccc6n2c5c31)C(=O)NC4 [Midostaurin] (first compound 0.2 µM, partner dose 0.08 µM)",157%
5,"CC(C)C[C@H](NC(=O)[C@H](Cc1ccccc1)NC(=O)c1cnccn1)B(O)O [Bortezomib] + COc1ccc2c(c1)CCC1C2CCC2(C)C(NCCCCCCN3C(=O)C=CC3=O)CCC12 [U73122] (first compound 0.001 µM, partner dose 0.4 µM)",223%
6,"Nc1ccn([C@@H]2O[C@H](CO)[C@@H](O)C2(F)F)c(=O)n1 [gemcitabine] + OCCn1cc(-c2cnc3nnn(Cc4ccc5ncccc5c4)c3n2)cn1 [PF04217903] (first compound 0.0004 µM, partner dose 1 µM)",101%
7,"CNC(=O)c1cc(Oc2ccc(NC(=O)Nc3ccc(Cl)c(C(F)(F)F)c3)cc2)ccn1 [sorafenib] + CO[C@@H]1[C@H](N(C)C(=O)c2ccccc2)C[C@H]2O[C@]1(C)n1c3ccccc3c3c4c(c5c6ccccc6n2c5c31)C(=O)NC4 [Midostaurin] (first compound 0.4 µM, partner dose 0.08 µM)",192%
8,"O=C(O)[C@@H]1[O][Sb](=[O])([O][Sb]2(=[O])[O][C@H]([C@H](O)CO)[C@H](O)[C@H](C(=O)O)[O]2)[O][C@H]([C@H](O)CO)[C@@H]1O (stereo partly drawn) [stibogluconate] + Cc1ccc(NC(=O)c2cccc(N(C)C)c2)cc1NC(=O)c1ccc(O)cc1 [ZM336372] (first compound 2 µM, partner dose 2 µM)",102%
9,"CN1CCN(c2ccc3nc(-c4c(N)c5c(F)cccc5[nH]c4=O)[nH]c3c2)CC1 [Dovitinib] + COc1cc2c(Oc3ccc4[nH]c(C)cc4c3F)ncnc2cc1OCCCN1CCCC1 [cediranib] (first compound 0.1 µM, partner dose 0.4 µM)",74%
10,"CC(C)C[C@H](NC(=O)[C@H](Cc1ccccc1)NC(=O)c1cnccn1)B(O)O [Bortezomib] + CC(C)CCN1c2nc(Nc3cc(F)c(O)c(F)c3)ncc2N(C)C(=O)C1C [BID1870] (first compound 0.001 µM, partner dose 0.2 µM)",83.3%
11,"O=C(O)c1ccc2c(c1)nc(Nc1cccc(Cl)c1)c1ccncc12 + NCC(=O)Nc1ccc(-n2nc(C(F)(F)F)cc2-c2ccc3c(ccc4ccccc43)c2)cc1 [OSU03012] (first compound 0.4 µM, partner dose 1 µM)",84.3%
12,"Nc1ncn([C@H]2C[C@H](O)[C@@H](CO)O2)c(=O)n1 [decitabine] + Cn1cc(/C=C2\C(=O)Nc3cccnc32)c2ccccc21 [GW441756] (first compound 0.1 µM, partner dose 0.4 µM)",45.4%
13,"CNC(=O)c1cc(Oc2ccc(NC(=O)Nc3ccc(Cl)c(C(F)(F)F)c3)cc2)ccn1 [sorafenib] + Oc1nc(-c2ccc(C(F)(F)F)cc2)nc2c1CSCC2 [XAV939] (first compound 0.4 µM, partner dose 2 µM)",39.7%
14,"O=C(O)[C@@H]1[O][Sb](=[O])([O][Sb]2(=[O])[O][C@H]([C@H](O)CO)[C@H](O)[C@H](C(=O)O)[O]2)[O][C@H]([C@H](O)CO)[C@@H]1O (stereo partly drawn) [stibogluconate] + C=CCn1c(=O)c2cnc(Nc3ccc(N4CCN(C)CC4)cc3)nc2n1-c1cccc(C(C)(C)O)n1 [MK1775] (first compound 2 µM, partner dose 0.02 µM)",223%
15,"CC(C)C[C@H](NC(=O)[C@H](Cc1ccccc1)NC(=O)c1cnccn1)B(O)O [Bortezomib] + O=c1cc(-c2cccc3c2Sc2ccccc2S3)oc(N2CCOCC2)c1 [KU55933] (first compound 0.001 µM, partner dose 1 µM)",110%
16,"Cn1c(=O)n(-c2ccc(C(C)(C)C#N)cc2)c2c3cc(-c4cnc5ccccc5c4)ccc3ncc21 + OCCn1cc(-c2cnc3nnn(Cc4ccc5ncccc5c4)c3n2)cn1 [PF04217903] (first compound 0.004 µM, partner dose 1 µM)",37.2%
17,"Cn1c(=O)n(-c2ccc(C(C)(C)C#N)cc2)c2c3cc(-c4cnc5ccccc5c4)ccc3ncc21 + c1cc(-c2cnn3cc(-c4ccc(OCCN5CCCCC5)cc4)cnc23)ccn1 [Dorsomorphin] (first compound 0.004 µM, partner dose 0.4 µM)",32.7%
18,"O=C(O)c1ccc2c(c1)nc(Nc1cccc(Cl)c1)c1ccncc12 + COc1ccc(-c2ccc3c(N4CCOCC4)nc(N4C[C@@H](C)O[C@@H](C)C4)nc3n2)cc1CO [KU0063794] (first compound 0.4 µM, partner dose 0.02 µM)",108%

# 2 records picked at random from the list so far, as already listed:
row,SMILES,cleaved PARP positive nuclei fraction
8,"O=C(O)[C@@H]1[O][Sb](=[O])([O][Sb]2(=[O])[O][C@H]([C@H](O)CO)[C@H](O)[C@H](C(=O)O)[O]2)[O][C@H]([C@H](O)CO)[C@@H]1O (stereo partly drawn) [stibogluconate] + Cc1ccc(NC(=O)c2cccc(N(C)C)c2)cc1NC(=O)c1ccc(O)cc1 [ZM336372] (first compound 2 µM, partner dose 2 µM)",102%
9,"CN1CCN(c2ccc3nc(-c4c(N)c5c(F)cccc5[nH]c4=O)[nH]c3c2)CC1 [Dovitinib] + COc1cc2c(Oc3ccc4[nH]c(C)cc4c3F)ncnc2cc1OCCCN1CCCC1 [cediranib] (first compound 0.1 µM, partner dose 0.4 µM)",74%
